Consider three molecules from doi:10.1101/2022.09.07.507063.

By UniProt entry, the sequences of proteins in these tests, tags left out. Residues count along the entry.
UniProt P25445, residues 26-335: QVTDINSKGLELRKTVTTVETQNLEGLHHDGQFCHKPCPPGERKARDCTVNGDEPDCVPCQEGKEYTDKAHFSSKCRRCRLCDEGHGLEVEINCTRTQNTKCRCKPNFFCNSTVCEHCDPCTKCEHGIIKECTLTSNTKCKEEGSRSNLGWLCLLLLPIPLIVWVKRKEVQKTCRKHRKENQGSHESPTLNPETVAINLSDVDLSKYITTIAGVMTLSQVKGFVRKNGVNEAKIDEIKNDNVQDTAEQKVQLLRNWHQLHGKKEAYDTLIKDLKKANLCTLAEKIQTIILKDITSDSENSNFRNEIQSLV
UniProt O00220, residues 24-468: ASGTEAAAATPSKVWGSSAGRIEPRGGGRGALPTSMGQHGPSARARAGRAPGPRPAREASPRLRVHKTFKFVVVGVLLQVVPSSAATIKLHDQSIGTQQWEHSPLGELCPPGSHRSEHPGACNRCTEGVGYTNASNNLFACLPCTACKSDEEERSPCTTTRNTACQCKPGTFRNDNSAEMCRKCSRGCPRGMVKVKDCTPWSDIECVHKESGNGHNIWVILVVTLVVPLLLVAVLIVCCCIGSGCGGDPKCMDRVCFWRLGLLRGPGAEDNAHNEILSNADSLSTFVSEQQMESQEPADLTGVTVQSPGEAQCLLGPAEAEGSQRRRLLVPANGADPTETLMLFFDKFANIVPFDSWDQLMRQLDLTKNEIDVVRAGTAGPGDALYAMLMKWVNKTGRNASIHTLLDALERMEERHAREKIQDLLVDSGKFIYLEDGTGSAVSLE

The target in test [1] is T1, membrane-associated RING-CH-type finger ubiquitin ligase MARCHF8 (human (endogenous in SCC152)) (UniProt Q5T0T0).
T1 sequence: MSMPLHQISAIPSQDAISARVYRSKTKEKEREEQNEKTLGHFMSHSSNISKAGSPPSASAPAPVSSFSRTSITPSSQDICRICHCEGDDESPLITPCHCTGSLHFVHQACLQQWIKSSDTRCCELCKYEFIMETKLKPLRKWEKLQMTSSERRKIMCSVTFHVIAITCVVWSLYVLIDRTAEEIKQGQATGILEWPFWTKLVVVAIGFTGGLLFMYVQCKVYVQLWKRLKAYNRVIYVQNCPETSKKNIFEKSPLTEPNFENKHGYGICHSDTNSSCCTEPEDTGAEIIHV
The test is described as follows: co-IP.

Test [2] has as its target FAS (human (endogenous in SCC152)) (UniProt P25445). The test is described as follows: co-IP.

Results are given in words; binding and its absence hold for the method and conditions named. Binding seen in cells or lysates may run through a third protein. Some entries that bind do so weakly or less than the wild type.

On to “FAS (from UniProt P25445 26-335) (receptor)”, for which, in test [1], the binding result was “binds”.
The same measure, in the same setting: to “tumor necrosis factor (TNF)-related apoptosis-inducing ligand receptor TRAIL-R1 (from UniProt O00220 24-468)” belongs “binds”.

B1: membrane-associated RING-CH-type finger ubiquitin ligase MARCHF8 (enzyme, UniProt Q5T0T0 1-291)
chain: T1 sequence
As for B1, the binding entry in test [2] is listed as “binds”.
